Data published in PubChem BioAssay AID602296 (Broad Institute, 2012).
The campaign covered roughly 2,000 compounds. About 190 (9.5%) were called active. Not shown: some 14% with an inconclusive outcome.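 The calls were made as follows: active = fitted activation curve crossing 40% at a concentration no higher than the sample's top valid tested dose; inconclusive = flat fitted curve at 30% to 70% activation, or poor curve fit; inactive = signal decrease, flat curve within 30%, or the rest.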 The list lacks most of the strong results.

assay: HSF-1 reporter activators over prolonged exposure, confirmation, cell-based, mouse, luciferase, cherry-pick, dose (AID 602296); conditions: NIH3T3-HGL HSF-1 response element luciferase, 48 h; at 26 µM (top of the series) unless noted;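 also: test compounds applied by themselves with no MG132 co-treatment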

activation, inactive:
COc1ccc(C)cc1-n1c(SCC(=O)Nc2cccc(C(=O)O)c2)nc2ccccc2c1=O 5.74%
CN(C)c1nc(N)nc(CSc2nnnn2-c2cccc3ccccc23)n1 -21.8%
Cc1ccccc1Nc1nnc(C)c(=O)[nH]1 -0.615%
COCCn1c(=O)[nH]c2cc(C(=O)N3CCN(c4cccc(Cl)c4)CC3)ccc2c1=O -3.14%
O=S(=O)(NCc1ccccn1)c1ccc2ccccc2c1 15.4%
COC(=O)C1CCN(C(=O)Cc2c(OC)ccc3cc(Br)ccc23)CC1 -0.233%
CCN(CC(=O)Nc1cccc(OC)c1)CC(=O)Nc1ccc(Br)c(C)c1 -67.4%
CCOC(=O)Nc1ccc2c(c1)N(C(=O)CN(CC)CC)c1ccccc1C=C2 0.048%
CCOC(=O)c1c(NC(C)=O)sc2c(O)c(CN3CCN(CC)CC3)ccc12 -10.9%
O=C(CNC(=O)C1CCCCC1)OCC(=O)c1ccc(Br)cc1 7%
Cc1ccc(OCc2ccc(C#N)cc2)c(C(=O)c2cc(C#N)c(=O)n(C3CC3)c2)c1 -2.47%
N#CCC(CNc1ncc(C(F)(F)F)cc1Cl)OC(=O)c1ccc(Cl)cc1Cl (centres undefined) 7.88%
CN(Cc1cccc2cnccc12)C(=O)c1cc(COc2ccc(F)cc2F)on1 -16.1%
COC(=O)C(NNc1ccccc1C)(NC(=O)c1ccc(F)cc1)C(F)(F)F (centres undefined) 18.4%
CCOC(=O)COc1ccc2ccccc2c1/C=C/[N+](=O)[O-] -112%
C=CCN1C(=O)NC(c2ccccc2)(C(F)(F)F)S/C1=C(\C#N)c1nnc(N2CCOCC2)n1-c1ccccc1 (centres undefined) -40%
CCc1cc(C(=O)c2ccc(OC)cc2)c(N)s1 0.691%
CCNC(=S)N1CCN(S(=O)(=O)c2cccc(C(F)(F)F)c2)CC1 6.4%
Cc1ccc([N+](=O)[O-])cc1N=Nc1c(-c2ccc([N+](=O)[O-])cc2)[nH]n(C(N)=S)c1=O -67%
Cc1cccc(C)c1OCC(=O)NCc1nnc(SCC(=O)NC2CCCCC2C)n1C (centres undefined) -6.61%
COc1ccc(N/C=C(\C=C\C#N)S(=O)(=O)c2ccccc2)cc1 2.06%
COCc1cc(CN2CCN(CCc3ccccc3)C(CCO)C2)ccc1OC (centres undefined) -12.6%
O=C(CSc1nnc(-c2ccncc2)n1Cc1ccco1)N1c2ccccc2Sc2ccc(Cl)cc21 -3.27%
CS/C(Nc1cc(Cl)ccc1Cl)=C(/C#N)C(=O)c1ccco1 -49.6%
